Source: patent EP2948433B1, “ATGLISTATIN AS LIPASE INHIBITOR” (Technische Universität Graz, priority 2013, dated 2014)

Test: Inhibition of lipolysis in vivo, oral gavage in fasted mice, plasma parameters
Set-up: species or system C57BI/6J mice
Conditions: 200 µmol/kg oral gavage, after 8 h, mean ± S.D., n = 7
Description: • Figure 1. Structure of compounds 1 to 3 (reference) and compound 4 (atglistatin) and effect on ATGL activity. For determination of lipase activity, lysates of E. coli overexpressing recombinant strep-tagged ATGL and CGI-58 were incubated with a substrate containing radiolabeled [9,10-3H(N)]-triolein. Subsequently, FA were extracted and quantified by liquid scintillation counting. Lysates of cells expressing empty vector were set as blank. Inhibitors were solubilized in DMSO and added at the indicated concentrations. DMSO alone was used as negative control. (A) Structure and IC50 values of compounds 1-4. (B) Dose-dependent inhibition of ATGL in the presence of compound 3 and 4. […] (C) Lineweaver-Burk plots for kinetic analysis of ATGL inhibition. Experiments were performed at varying concentrations of substrate (0.05 - 3 mM) in presence and absence of compound 4 (Atglistatin). […] Data are presented as mean +/-S.D. of triplicate determinations. Data for compound 4 are representative for at least three independent experiments. • Figure 2. Selectivity of Atglistatin. Lipase activity of ATGL, HSL, lipoprotein lipase, and pancreatic lipase was determined using triolein as substrate. MGL activity was detected in the presence of rac-(1,3)-monooleoylglycerol as substrate. Inhibitors were solubilized in DMSO and added at the indicated concentrations. DMSO alone was used as negative control. (A) Dose-dependent inhibition of TG hydrolase activity in WAT lysates obtained from wild-type and ATGL-ko mice. (B) Inhibition of TG hydrolase activity in wild-type WAT lysates by Atglistatin (40 µM) and by the HSL inhibitor Hi 76-0079 (20 µM). (C) Effect of Atglistatin on murine MGL (purified from E. coli), and murine HSL (overexpressed in COS-7 lysates) activity. […] The release of FA (A) and glycerol (B) in the media was determined using commercial kits. […] At the indicated timepoints blood was taken retroorbitally and plasma parameters were measured using commercial kits. […] 8 h after gavage blood was taken retroorbitally and plasma parameters were measured using commercial kits. […]

Structure (SMILES): CN(C)C(=O)Nc1cccc(-c2ccc(N(C)C)cc2)c1 [Atglistatin, atglistatin]
- Glucose: 86.85 ± 12.19 mg/dL
- CE (plasma (text: total cholesterol)): 3.12 ± 0.25 mmol/L
- Insulin (plasma): 0.18 ± 0.07 ng/mL
